The list shows a part of the results, in another mix than the full data. At the low end of the ranking, values are background and their order means little. The list shows a part of the results.
What was measured:
Assay in all cases: SELEX-seq (CSI, HT-SELEX, round 3)
Settings in all cases: SELEX-seq: 1x PBS (10 mM phosphate, 137 mM NaCl, 2.7 mM KCl) pH 7.6, 2.5 mM DTT, 50 ng/ul poly dI-dC, 0.1% BSA, 50 nM biotinylated bZIP (1:3 with partner for …); high values mean tight binding; double strand, one strand shown
[1] = tested on: T1, BATF + ATF3
T1 sequence 1: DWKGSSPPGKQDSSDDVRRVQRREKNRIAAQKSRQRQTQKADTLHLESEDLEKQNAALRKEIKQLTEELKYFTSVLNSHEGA
T1 sequence 2: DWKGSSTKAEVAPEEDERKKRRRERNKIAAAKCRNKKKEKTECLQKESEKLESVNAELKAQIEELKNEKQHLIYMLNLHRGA

[2] = tested on: T2, FOSL1 + BATF3
T2 sequence 1: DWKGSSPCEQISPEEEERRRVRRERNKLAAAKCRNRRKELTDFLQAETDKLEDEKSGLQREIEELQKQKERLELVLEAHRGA
T2 sequence 2: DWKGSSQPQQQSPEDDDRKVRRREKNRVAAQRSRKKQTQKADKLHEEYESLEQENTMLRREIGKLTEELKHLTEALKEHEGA

[3] = tested on: JUNB + FOS
[4] = tested on: T3, BATF + CEBPE
T3 sequence 1: T1 sequence 1
T3 sequence 2: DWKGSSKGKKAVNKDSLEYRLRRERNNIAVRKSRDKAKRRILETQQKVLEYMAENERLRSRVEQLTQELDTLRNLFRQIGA

[5] = tested on: BATF + CEBPA
[6] = tested on: FOS + JUN
[7] = tested on: FOS + ATF2
[8] = tested on: T4, ATF5 + BATF3
T4 sequence 1: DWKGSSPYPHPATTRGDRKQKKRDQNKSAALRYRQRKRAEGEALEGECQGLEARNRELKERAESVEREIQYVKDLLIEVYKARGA
T4 sequence 2: T2 sequence 2

[9] = tested on: T5, JUNB + FOSL1
T5 sequence 1: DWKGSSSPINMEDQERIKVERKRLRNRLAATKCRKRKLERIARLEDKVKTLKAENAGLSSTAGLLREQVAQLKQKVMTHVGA
T5 sequence 2: T2 sequence 1

[10] = tested on: T6, JUNB + CREBZF
T6 sequence 1: T5 sequence 1
T6 sequence 2: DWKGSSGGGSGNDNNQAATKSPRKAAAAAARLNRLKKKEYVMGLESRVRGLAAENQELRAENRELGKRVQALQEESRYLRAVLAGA

[11] = tested on: T7, JUNB + ATF2
T7 sequence 1: T5 sequence 1
T7 sequence 2: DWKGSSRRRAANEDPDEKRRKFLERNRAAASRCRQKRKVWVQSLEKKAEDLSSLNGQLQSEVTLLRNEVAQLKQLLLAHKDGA

[12] = tested on: T8, BATF2 + ATF3
T8 sequence 1: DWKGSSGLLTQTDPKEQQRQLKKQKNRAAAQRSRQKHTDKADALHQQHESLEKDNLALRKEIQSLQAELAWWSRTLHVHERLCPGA
T8 sequence 2: T1 sequence 2

[13] = tested on: JUNB + ATF4
[14] = tested on: FOS + BATF3
[15] = tested on: ATF5 + JUN
[16] = tested on: BATF2 + ATF4
[17] = tested on: T9, JUNB + BATF2
T9 sequence 1: T5 sequence 1
T9 sequence 2: T8 sequence 1

[18] = tested on: T10, BATF + HLF
T10 sequence 1: T1 sequence 1
T10 sequence 2: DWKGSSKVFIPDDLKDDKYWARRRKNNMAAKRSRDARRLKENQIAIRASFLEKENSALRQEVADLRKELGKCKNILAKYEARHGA

[19] = tested on: T11, JUNB + BATF
T11 sequence 1: T5 sequence 1
T11 sequence 2: T1 sequence 1

[20] = tested on: T12, JUNB + HLF
T12 sequence 1: T5 sequence 1
T12 sequence 2: T10 sequence 2

Sequence ATGACGTAAT has a binding signal (relative CSI intensity (max = 1)) [1] of 0.0836, a binding signal (relative CSI intensity (max = 1)) [2] of 0.0576 and a binding signal (relative CSI intensity (max = 1)) [3] of 0.00946. The binding signal (relative CSI intensity (max = 1)) [4] was 0.000865.

CCTGACGTCA was tested, and the binding signal (relative CSI intensity (max = 1)) [5] was 0.000182, the binding signal (relative CSI intensity (max = 1)) [6] was 0.000618 and the binding signal (relative CSI intensity (max = 1)) [7] was 0.00727. For the same sequence, the binding signal (relative CSI intensity (max = 1)) [8] was 0.0107, the binding signal (relative CSI intensity (max = 1)) [9] was 0.00464 and the binding signal (relative CSI intensity (max = 1)) [10] was 6.71e-05. The binding signal (relative CSI intensity (max = 1)) [4] was 0.000589.

ATGACGCAAT gave a binding signal (relative CSI intensity (max = 1)) [11] of 0.00356, a binding signal (relative CSI intensity (max = 1)) [2] of -0.000268 and a binding signal (relative CSI intensity (max = 1)) [6] of 0.000574.

Sequence ATGACGTCAT has a binding signal (relative CSI intensity (max = 1)) [1] of 0.113 and a binding signal (relative CSI intensity (max = 1)) [12] of 0.0121.

ATGACGGAAT showed a binding signal (relative CSI intensity (max = 1)) [13] of 0.000252, a binding signal (relative CSI intensity (max = 1)) [11] of 0.000434 and a binding signal (relative CSI intensity (max = 1)) [5] of 2.16e-05. It also gave a binding signal (relative CSI intensity (max = 1)) [2] of -0.000268, a binding signal (relative CSI intensity (max = 1)) [6] of -4.41e-05 and a binding signal (relative CSI intensity (max = 1)) [14] of 0.000818. It also gave a binding signal (relative CSI intensity (max = 1)) [7] of 0.000465, a binding signal (relative CSI intensity (max = 1)) [15] of -0.0134 and a binding signal (relative CSI intensity (max = 1)) [8] of 0.000102. It also gave a binding signal (relative CSI intensity (max = 1)) [12] of 9.37e-05, a binding signal (relative CSI intensity (max = 1)) [16] of 0.000958 and a binding signal (relative CSI intensity (max = 1)) [9] of -0.000632. The binding signal (relative CSI intensity (max = 1)) [3] was 0.00021, the binding signal (relative CSI intensity (max = 1)) [17] was 0.000361 and the binding signal (relative CSI intensity (max = 1)) [4] was -0.00011. The binding signal (relative CSI intensity (max = 1)) [18] was -0.0678.

In the case of ATGATGCAAT, the binding signal (relative CSI intensity (max = 1)) [13] is reported as 0.000395, the binding signal (relative CSI intensity (max = 1)) [11] is reported as 9.64e-05 and the binding signal (relative CSI intensity (max = 1)) [1] is reported as -0.0407. The binding signal (relative CSI intensity (max = 1)) [6] was 0.000186, the binding signal (relative CSI intensity (max = 1)) [14] was 0.000576 and the binding signal (relative CSI intensity (max = 1)) [7] was 0.000177. For the same sequence, the binding signal (relative CSI intensity (max = 1)) [19] was 0.000564, the binding signal (relative CSI intensity (max = 1)) [9] was -0.000254 and the binding signal (relative CSI intensity (max = 1)) [3] was 0.000119. For the same sequence, the binding signal (relative CSI intensity (max = 1)) [20] was -0.0179 and the binding signal (relative CSI intensity (max = 1)) [4] was 0.000928.

— article PMC5349851
